From article PMC4072698
Results are given in words; binding and its absence hold for the method and conditions named. In cells and extracts the contact can be indirect. Some entries that bind do so weakly or less than the wild type.

The chains behind the UniProt entries cited, without tags or fusion partners. Residues count along the entry.
UniProt P61823, residues 27-150: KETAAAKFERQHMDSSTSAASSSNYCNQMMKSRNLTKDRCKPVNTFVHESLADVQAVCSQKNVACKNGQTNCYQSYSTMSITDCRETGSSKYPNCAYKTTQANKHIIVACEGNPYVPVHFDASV

Key:
GFP-3xHA-AurB = GFP-3xHA-AurB (UniProt Q6DE08); experiment: co-IP; recombinant GFP-AurB added to control or RNase-treated Xenopus egg extract and immunoprecipitated through GFP (anti-GFP antibody or GFP-Trap beads); western blot for Incenp, DasraA and Survivin; mock IP from extract lacking GFP-AurB as control; only the target purified
[1] = biological target: Aurora-B (AurB) (Xenopus laevis (endogenous in egg extract)) (UniProt Q6DE08); experiment: co-IP; endogenous AurB immunoprecipitated with anti-AurB antibodies from control or RNase-treated Xenopus egg extract (RNaseA 0.1 mg/ml); western blot with anti-RNaseA beside 5-50 ng RNaseA in input; only the binder purified

| Substance | binding (GFP-3xHA-AurB) | binding [1] |
| --- | --- | --- |
| Incenp (from UniProt O13024 1-873) | binds | – |
| RNaseA TypeX IIA (Sigma) (from UniProt P61823 27-150) (enzyme) | – | no binding (tested: 0.1 mg/ml RNaseA in extract) |
